These are yes or no findings as the source states them, for the method shown. Binding seen in cells or lysates may run through a third protein. A result given as binding can be weak or reduced; the word gives no strength.
Target: ETB-Y5 with SmBiT at the C-terminus (thermostabilized human ETB receptor) (human) (UniProt P24530)
Assay: split reporter; NanoBiT β-arrestin recruitment: ETR-SmBiT and LgBiT-βarr1 co-expressed in HEK293A cells; luminescence after addition of ET-1, ET-3 or IRL1620, room temperature, fold change over 5-10 min

By UniProt entry, the sequences of proteins in these tests, tags left out. Where a name states a change or a piece, a line headed by the entry shows the natural chain unless it says otherwise.
UniProt P24530: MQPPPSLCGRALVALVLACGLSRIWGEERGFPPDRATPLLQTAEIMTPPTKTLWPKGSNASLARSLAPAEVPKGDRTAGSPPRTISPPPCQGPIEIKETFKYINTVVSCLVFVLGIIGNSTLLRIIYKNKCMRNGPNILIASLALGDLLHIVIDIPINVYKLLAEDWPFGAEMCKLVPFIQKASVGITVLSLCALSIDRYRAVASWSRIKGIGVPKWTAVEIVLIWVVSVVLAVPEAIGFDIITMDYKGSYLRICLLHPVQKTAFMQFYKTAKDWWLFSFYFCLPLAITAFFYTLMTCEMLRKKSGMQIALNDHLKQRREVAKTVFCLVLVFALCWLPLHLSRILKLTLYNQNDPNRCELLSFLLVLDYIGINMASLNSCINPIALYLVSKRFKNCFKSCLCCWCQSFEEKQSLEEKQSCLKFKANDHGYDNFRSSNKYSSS
UniProt P49407: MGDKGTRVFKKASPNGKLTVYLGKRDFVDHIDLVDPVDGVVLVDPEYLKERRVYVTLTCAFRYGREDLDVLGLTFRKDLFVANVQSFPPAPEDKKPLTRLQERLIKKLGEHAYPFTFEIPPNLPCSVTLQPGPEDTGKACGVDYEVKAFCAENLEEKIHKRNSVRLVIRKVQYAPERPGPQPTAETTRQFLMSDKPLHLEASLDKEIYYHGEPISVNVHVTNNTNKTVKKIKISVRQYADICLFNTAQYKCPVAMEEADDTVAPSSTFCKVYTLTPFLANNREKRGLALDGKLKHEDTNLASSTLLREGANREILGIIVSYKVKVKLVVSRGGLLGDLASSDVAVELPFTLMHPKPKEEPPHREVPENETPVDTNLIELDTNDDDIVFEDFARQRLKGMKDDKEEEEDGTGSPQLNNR

internalization-defective LgBiT-beta-arrestin1 (R393E, R395E) (from UniProt P49407 1-418)
binding: binds

Source: publication PMC6226434
